In PMC11005723, “Development of Complementary Photo‐arginine/lysine to Promote Discovery of Arg/Lys hPTMs Interactomes” (Advanced Science, 2024):
Further values from the same series stand in other lists.

Tested on: HEK293T nuclear lysates
Assay: SILAC‐based pull‐down proteomics H4K5me1/H4K5 (probes 6/5)
Type: binding, human

probe 6: H4K5me peptide probe with photo‐arginine R(dz) and K(biotin) (SGRGKGGKGLGKGGK; photo-arginine R(dz) at 3; monomethyl-lysine at 5; K(biotin) at 15)
B6 log2 (H4K5me/H4K5) (protein RAP1A (P62834), run B6): -0.007077
C6 log (H4K5me/H4K5) (protein RAP1A (P62834), run C6): -0.4769
B6 log2 (H4K5me/H4K5) (protein RBBP4 (Q09028), SILAC run B6): -0.4064
C6 log (H4K5me/H4K5) (protein RBBP4 (Q09028), SILAC run C6): -0.3461
B6 log2 (H4K5me/H4K5) (protein RBM4 (Q9BWF3), run B6): 0.04912
C6 log (H4K5me/H4K5) (protein RBM4 (Q9BWF3), run C6): 0.06332
B6 log2 (H4K5me/H4K5) (protein RBM25 (P49756), run B6): -0.007613
C6 log (H4K5me/H4K5) (protein RBM25 (P49756), run C6): 0.03292
B6 log2 (H4K5me/H4K5) (protein RBM28 (Q9NW13), run B6): 0.08184
C6 log (H4K5me/H4K5) (protein RBM28 (Q9NW13), run C6): -0.1684
B6 log2 (H4K5me/H4K5) (protein RCC1 (P18754), run B6): -0.02509
C6 log (H4K5me/H4K5) (protein RCC1 (P18754), run C6): 0.07571
B6 log2 (H4K5me/H4K5) (protein RCC2 (Q9P258), run B6): -0.001202
C6 log (H4K5me/H4K5) (protein RCC2 (Q9P258), run C6): 0.002068
B6 log2 (H4K5me/H4K5) (protein RFC2 (P35250), SILAC run B6): -0.5639
C6 log (H4K5me/H4K5) (protein RFC2 (P35250), SILAC run C6): 0.2299
B6 log2 (H4K5me/H4K5) (protein RNPS1 (H3BV80), run B6): -0.01134
C6 log (H4K5me/H4K5) (protein RNPS1 (H3BV80), run C6): 0.06229
B6 log2 (H4K5me/H4K5) (protein RPL3 (P39023), run B6): 0.08452
C6 log (H4K5me/H4K5) (protein RPL3 (P39023), run C6): -0.06083
B6 log2 (H4K5me/H4K5) (protein RPL8 (E9PKZ0), run B6): 0.1175
C6 log (H4K5me/H4K5) (protein RPL8 (E9PKZ0), run C6): -0.1679
B6 log2 (H4K5me/H4K5) (protein RPL13 (P26373), SILAC run B6): -0.4659
C6 log (H4K5me/H4K5) (protein RPL13 (P26373), SILAC run C6): -0.6354
B6 log2 (H4K5me/H4K5) (protein RPL17 (A0A087WXM6), SILAC run B6): -0.2705
C6 log (H4K5me/H4K5) (protein RPL17 (A0A087WXM6), SILAC run C6): -0.07394
B6 log2 (H4K5me/H4K5) (protein RPL24 (C9JXB8), SILAC run B6): -0.2131
C6 log (H4K5me/H4K5) (protein RPL24 (C9JXB8), SILAC run C6): -0.1626
B6 log2 (H4K5me/H4K5) (protein RPL27A (E9PJD9), run B6): 0.04612
C6 log (H4K5me/H4K5) (protein RPL27A (E9PJD9), run C6): -0.02178
B6 log2 (H4K5me/H4K5) (protein RPS6 (P62753), SILAC run B6): -0.2158
C6 log (H4K5me/H4K5) (protein RPS6 (P62753), SILAC run C6): -0.1733
B6 log2 (H4K5me/H4K5) (protein RPS9 (P46781), run B6): -0.01835
C6 log (H4K5me/H4K5) (protein RPS9 (P46781), run C6): 0.07362
B6 log2 (H4K5me/H4K5) (protein RRP1 (P56182), run B6): 0.1139
C6 log (H4K5me/H4K5) (protein RRP1 (P56182), run C6): 0.1334
B6 log2 (H4K5me/H4K5) (protein RRP1B (Q14684), SILAC run B6): -0.2069
C6 log (H4K5me/H4K5) (protein RRP1B (Q14684), SILAC run C6): -0.07412
B6 log2 (H4K5me/H4K5) (protein RSL1D1 (J3QSV6), SILAC run B6): -0.2399
C6 log (H4K5me/H4K5) (protein RSL1D1 (J3QSV6), SILAC run C6): -0.2367
B6 log2 (H4K5me/H4K5) (protein RYBP (Q8N488), SILAC run B6): -0.5235
C6 log (H4K5me/H4K5) (protein RYBP (Q8N488), SILAC run C6): -0.6604
B6 log2 (H4K5me/H4K5) (protein S4R3H4 ACIN1, run B6): 0.3258
C6 log (H4K5me/H4K5) (protein S4R3H4 ACIN1, run C6): 0.1683
B6 log2 (H4K5me/H4K5) (protein SAFB2 (Q14151), run B6): 0.07268
C6 log (H4K5me/H4K5) (protein SAFB2 (Q14151), run C6): -0.1575
B6 log2 (H4K5me/H4K5) (protein SATB2 (C9JR56), SILAC run B6): -0.2229
C6 log (H4K5me/H4K5) (protein SATB2 (C9JR56), SILAC run C6): -0.1156
B6 log2 (H4K5me/H4K5) (protein SCRN1 (Q12765), SILAC run B6): -1.283
C6 log (H4K5me/H4K5) (protein SCRN1 (Q12765), SILAC run C6): -0.7873
B6 log2 (H4K5me/H4K5) (protein SEPHS1 (P49903), run B6): -0.02418
C6 log (H4K5me/H4K5) (protein SEPHS1 (P49903), run C6): -0.2248
B6 log2 (H4K5me/H4K5) (protein SEPT7 (E7ES33), SILAC run B6): -0.5479
C6 log (H4K5me/H4K5) (protein SEPT7 (E7ES33), SILAC run C6): -0.9057
B6 log2 (H4K5me/H4K5) (protein SEPT9 (Q9UHD8), SILAC run B6): -0.7376
C6 log (H4K5me/H4K5) (protein SEPT9 (Q9UHD8), SILAC run C6): -1.027
B6 log2 (H4K5me/H4K5) (protein SERBP1 (Q8NC51), run B6): -0.01825
C6 log (H4K5me/H4K5) (protein SERBP1 (Q8NC51), run C6): 0.000826
B6 log2 (H4K5me/H4K5) (protein SET (Q01105), run B6): 0.02345
C6 log (H4K5me/H4K5) (protein SET (Q01105), run C6): 0.002162
B6 log2 (H4K5me/H4K5) (protein SF3B2 (Q13435), run B6): 0.01409
C6 log (H4K5me/H4K5) (protein SF3B2 (Q13435), run C6): 0.05282
B6 log2 (H4K5me/H4K5) (protein SFPQ (P23246), SILAC run B6): -0.1964
C6 log (H4K5me/H4K5) (protein SFPQ (P23246), SILAC run C6): -0.1626
B6 log2 (H4K5me/H4K5) (protein SHMT2 (H0YIZ0), SILAC run B6): -0.4157
C6 log (H4K5me/H4K5) (protein SHMT2 (H0YIZ0), SILAC run C6): -0.3495
B6 log2 (H4K5me/H4K5) (protein SKIV2L2 (P42285), SILAC run B6): -0.2278
C6 log (H4K5me/H4K5) (protein SKIV2L2 (P42285), SILAC run C6): 0.1964
B6 log2 (H4K5me/H4K5) (protein SLC4A1AP (A0A087X0M4), run B6): 0.07671
C6 log (H4K5me/H4K5) (protein SLC4A1AP (A0A087X0M4), run C6): -0.1873
B6 log2 (H4K5me/H4K5) (protein SMARCA5 (O60264), run B6): 0.1127
C6 log (H4K5me/H4K5) (protein SMARCA5 (O60264), run C6): 0.1015
B6 log2 (H4K5me/H4K5) (protein SMARCAD1 (Q9H4L7), run B6): 0.1065
C6 log (H4K5me/H4K5) (protein SMARCAD1 (Q9H4L7), run C6): 0.07169
B6 log2 (H4K5me/H4K5) (protein SMARCC2 (Q8TAQ2), run B6): 0.115
C6 log (H4K5me/H4K5) (protein SMARCC2 (Q8TAQ2), run C6): 0.2952
B6 log2 (H4K5me/H4K5) (protein SMCHD1 (A6NHR9), run B6): 0.05088
C6 log (H4K5me/H4K5) (protein SMCHD1 (A6NHR9), run C6): 0.2468
B6 log2 (H4K5me/H4K5) (protein SMU1 (Q2TAY7), run B6): 0.007935
C6 log (H4K5me/H4K5) (protein SMU1 (Q2TAY7), run C6): 0.2956
B6 log2 (H4K5me/H4K5) (protein SNRPD3 (P62318), run B6): 0.08292
C6 log (H4K5me/H4K5) (protein SNRPD3 (P62318), run C6): -0.5215
B6 log2 (H4K5me/H4K5) (protein SNRPN (J3QLE5), run B6): 0.1033
C6 log (H4K5me/H4K5) (protein SNRPN (J3QLE5), run C6): 0.3043
B6 log2 (H4K5me/H4K5) (protein SP1 (P08047), run B6): 0.09154
C6 log (H4K5me/H4K5) (protein SP1 (P08047), run C6): 0.1425
B6 log2 (H4K5me/H4K5) (protein SRPK1 (Q96SB4), run B6): 0.05055
C6 log (H4K5me/H4K5) (protein SRPK1 (Q96SB4), run C6): -0.002077
B6 log2 (H4K5me/H4K5) (protein SRRM1 (Q8IYB3), run B6): 0.05819
C6 log (H4K5me/H4K5) (protein SRRM1 (Q8IYB3), run C6): -0.1474
B6 log2 (H4K5me/H4K5) (protein SRRM2 (Q9UQ35), SILAC run B6): -0.2967
C6 log (H4K5me/H4K5) (protein SRRM2 (Q9UQ35), SILAC run C6): -0.3124
B6 log2 (H4K5me/H4K5) (protein SRSF2 (J3QL05), run B6): 0.01244
C6 log (H4K5me/H4K5) (protein SRSF2 (J3QL05), run C6): -0.01693
B6 log2 (H4K5me/H4K5) (protein SRSF3 (P84103), run B6): 0.06757
C6 log (H4K5me/H4K5) (protein SRSF3 (P84103), run C6): 0.1396
B6 log2 (H4K5me/H4K5) (protein SRSF4 (Q08170), run B6): 0.04611
C6 log (H4K5me/H4K5) (protein SRSF4 (Q08170), run C6): 0.02184
B6 log2 (H4K5me/H4K5) (protein SRSF9 (Q13242), run B6): 0.05869
C6 log (H4K5me/H4K5) (protein SRSF9 (Q13242), run C6): 0.008714
B6 log2 (H4K5me/H4K5) (protein SSU72 (Q9NP77), SILAC run B6): -0.9312
C6 log (H4K5me/H4K5) (protein SSU72 (Q9NP77), SILAC run C6): -0.5875
B6 log2 (H4K5me/H4K5) (protein STIP1 (F5H783), run B6): -0.02077
C6 log (H4K5me/H4K5) (protein STIP1 (F5H783), run C6): 0.2627
B6 log2 (H4K5me/H4K5) (protein STRAP (Q9Y3F4), run B6): 0.01999
C6 log (H4K5me/H4K5) (protein STRAP (Q9Y3F4), run C6): 0.07545
B6 log2 (H4K5me/H4K5) (protein SUMO1 (P63165), SILAC run B6): -0.2603
C6 log (H4K5me/H4K5) (protein SUMO1 (P63165), SILAC run C6): -0.1977
B6 log2 (H4K5me/H4K5) (protein SYMPK (Q92797), SILAC run B6): -0.4801
C6 log (H4K5me/H4K5) (protein SYMPK (Q92797), SILAC run C6): -0.2582
B6 log2 (H4K5me/H4K5) (protein SYNCRIP (O60506), run B6): 0.1142
C6 log (H4K5me/H4K5) (protein SYNCRIP (O60506), run C6): -0.05723
B6 log2 (H4K5me/H4K5) (protein TARDBP (A0A087WX29), run B6): 0.02534
